Experimental data: PubChem BioAssay AID504793 (Drosophila RNAi Screening Center, 2011)
Test: 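Knock-downs allowing continued mitosis even though DNA is damaged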 (primary screen). Cell system: Drosophila S2R+ cells. Reagents: long dsRNA against Drosophila genes, about 0.25 µg dsRNA per well. Timing: 4 days of dsRNA, then 4 hours of drug before read-out. Challenge: doxorubicin 0.5 µM for 4 hours to cause double-strand breaks, in cells also given a low, harmless dose of dsRNA against nbs to sensitise the assay. Read-out: 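Mitotic index as the number of phospho-histone H3-positive cells in each well following doxorubicin, given as raw counts without normalisation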. Scale: mitotic cells: higher = more cells in mitosis, weaker G2 arrest. Rule for the call: 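Genes are called active only when high mitotic counts were reproduced with independent dsRNAs and mitosis was checked for delay without damage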. Calls: active = confirmed in follow-up tests; inactive = not confirmed.
In all, the deposit lists about 23,000 reagents; shown is a random part of those with a known target gene and a result. In the full data, 62 (0.27%) got an active call. 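Calls come from follow-up tests whose scores are not deposited, so confirmed genes may have low counts here; counts are not normalised per plate.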 Raw values vary from plate to plate and are shown uncorrected. A plus sign joins genes that one reagent is predicted to hit. No sequences are given here.

Gene,dsRNA,"mitotic cells, replicate 1","mitotic cells, replicate 2",call
kuz,DRSC03555,2,,inactive
CG4306,DRSC10409,6,,inactive
CG4306,DRSC28986,6,,inactive
CG2930,DRSC17730,7,,inactive
CG2930,DRSC26303,4,,inactive
CG1792,DRSC15290,18,,inactive
CG1792,DRSC28745,5,,inactive
CG31808,DRSC22962,10,,inactive
CG31808,DRSC29167,3,,inactive
cona,DRSC16281,9,,inactive
Pi4KIIIalpha,DRSC18655,15,,inactive
IP3K1,DRSC02734,7,,inactive
pros,DRSC12856,12,,inactive
pros,DRSC17032,9,,inactive
pros,DRSC27593,8,,inactive
Syx16,DRSC20507,1,,inactive
Syx16,DRSC27163,5,,inactive
Mur18B,DRSC20063,4,,inactive
Mur18B,DRSC28610,3,,inactive
gNacalpha,DRSC00654,7,,inactive
gNacalpha,DRSC29840,9,,inactive
Aef1,DRSC11605,6,,inactive
net,DRSC00309,6,,inactive
Best2,DRSC09712,4,,inactive
CG12825,DRSC06174,14,,inactive
CG12825,DRSC26984,10,,inactive
Br140,DRSC06755,7,,inactive
CG15155,DRSC02456,9,,inactive
CG32444,DRSC11677,7,,inactive
Cyp301a1,DRSC07365,9,,inactive
raskol,DRSC19202,21,,inactive
raskol,DRSC19731,20,,inactive
raskol,DRSC19964,3,,inactive
raskol,DRSC21788,4,,inactive
swm,DRSC02012,13,,inactive
swm,DRSC21831,5,,inactive
CG7878,DRSC16330,6,,inactive
CG7878,DRSC23990,5,,inactive
Usp15-31,DRSC04426,7,,inactive
Usp15-31,DRSC24986,4,,inactive
CG5913,DRSC15916,3,,inactive
Vrp1,DRSC04148,7,,inactive
Vrp1,DRSC26671,4,,inactive
CG10669,DRSC14261,9,,inactive
CG31861,DRSC21665,11,,inactive
CG31861,DRSC29279,4,,inactive
TfIIFalpha,DRSC12608,10,,inactive
TfIIFalpha,DRSC26379,6,,inactive
CG34367,DRSC02238,6,,inactive
CG34367,DRSC02850,8,,inactive
CG34367,DRSC28054,6,,inactive
PDZ-GEF,DRSC03231,5,,inactive
tgo,DRSC17077,5,,inactive
tgo,DRSC29930,23,,inactive
CG13614,DRSC14617,11,,inactive
PLCXD,DRSC02427,4,15,inactive
CycB3,DRSC16618,18,,inactive
CG32483,DRSC07902,12,,inactive

9 entries from above, ordered by “mitotic cells, replicate 1”, highest first.
Gene,dsRNA,"mitotic cells, replicate 1","mitotic cells, replicate 2",call
CG12825,DRSC06174,14,,inactive
CG12825,DRSC26984,10,,inactive
gNacalpha,DRSC29840,9,,inactive
CG15155,DRSC02456,9,,inactive
Br140,DRSC06755,7,,inactive
CG32444,DRSC11677,7,,inactive
Aef1,DRSC11605,6,,inactive
net,DRSC00309,6,,inactive
Best2,DRSC09712,4,,inactive

Additional results follow:
Gene,dsRNA,"mitotic cells, replicate 1","mitotic cells, replicate 2",call
CG17141,DRSC15178,10,,inactive
CG5687,DRSC08568,5,,inactive
mib1,DRSC10550,8,,inactive
CG14262,DRSC14757,16,,inactive
chrb,DRSC11335,3,,inactive
chrb,DRSC25273,10,,inactive
CG7139,DRSC11611,5,,inactive
CG7139,DRSC24579,6,,inactive
Cpr12A,DRSC19722,11,,inactive
CG6168,DRSC10596,2,,inactive
CG8679,DRSC03109,,,inactive
Parp16,DRSC06597,19,,inactive
Parp16,DRSC27048,7,,inactive
CG14024,DRSC00868,4,,inactive
CG14024,DRSC02354,3,,inactive
CG1835,DRSC20560,7,,inactive
CG6675,DRSC03735,8,,inactive
CG12065,DRSC17798,4,,inactive
CG12065,DRSC17799,11,,inactive
CG13217,DRSC06339,8,,inactive
sa,DRSC11649,5,5,inactive
CG7506,DRSC10860,4,,inactive
babos,DRSC03923,7,,inactive
babos,DRSC04397,6,,inactive
mRpL43,DRSC04508,8,,inactive
mRpL43,DRSC22571,11,,inactive
stops,DRSC15095,4,,inactive
stops,DRSC15096,10,,inactive
stops,DRSC15097,10,,inactive
Ctr1B + Poxm,DRSC16245,3,,inactive
Polr3D,DRSC10485,4,,inactive
Polr3D,DRSC29157,10,,inactive
Ac13E,DRSC19325,10,,inactive
Ac13E,DRSC27333,3,,inactive
shams,DRSC16590,6,,inactive
CG31638,DRSC02269,7,,inactive
CG31638,DRSC03259,1,,inactive
CG31638,DRSC25082,5,,inactive
CR31824,DRSC01517,4,,inactive
CR31824,DRSC29841,10,,inactive
CG18537,DRSC06764,11,,inactive
CG18537,DRSC29847,13,,inactive
Prosalpha7,DRSC07516,93,,inactive
Prosalpha7,DRSC29365,119,,inactive
CG10140,DRSC09704,7,,inactive
CG10140,DRSC26220,2,,inactive
CG33255 (retired record) + hpRNA:CR32205,DRSC09610,10,,inactive
CG33255 (retired record) + hpRNA:CR32205,DRSC09611,8,,inactive
CG31345,DRSC14193,7,,inactive
CG31345,DRSC14847,5,,inactive
CG12071,DRSC22972,19,,inactive
CG12795,DRSC00354,3,,inactive
jagn,DRSC12152,6,,inactive
Egm,DRSC07319,4,,inactive
Egm,DRSC22860,9,,inactive
CG1227,DRSC12534,10,,inactive
CG1227,DRSC25952,5,,inactive
CG42561,DRSC05676,8,,inactive
CG12522,DRSC09088,9,,inactive
CG12522,DRSC25372,7,,inactive
ND-B14.7,DRSC04544,12,,inactive
c12.1,DRSC18750,11,,inactive
c12.1,DRSC25556,8,,inactive
veli,DRSC16276,8,,inactive
veli,DRSC27872,6,,inactive
CR32028 (retired record),DRSC22959,10,,inactive
CR32028 (retired record),DRSC25400,11,,inactive
Mob2,DRSC09117,4,,inactive
Mob2,DRSC09119,6,,inactive
Mob2,DRSC23274,4,,inactive
meso18E,DRSC20351,4,,inactive
meso18E,DRSC25315,6,,inactive
xmas,DRSC21306,15,,inactive
xmas,DRSC22178,20,,inactive
Fatp (retired record),DRSC03054,6,,inactive
Cirl,DRSC23235,10,,inactive
Cirl,DRSC28280,11,,inactive
CG14370,DRSC14832,4,,inactive
Argk2,DRSC10483,3,,inactive
Argk2,DRSC23349,23,,inactive
Argk2,DRSC28762,4,,inactive
CG15715,DRSC10216,10,,inactive
CG15715,DRSC25332,10,,inactive
